B1: 206A54 (designed binder)
chain: HHHHHHGSGLNDIFEAQKIEWHEAENLYFQSGSTEDERRELEKVARKAIEAAREGNTDEVREQLQRALEIARESGTTEAVKLALEVVARVAIEAARRGNTDAVREALEVALEIARESGTTEAVKLALEVVARVAIEAARRGNTDAVREALAVAVKIALKSGTEEAFRLAKEVIKRVSDEAKKQGNEDAVKEAESFDAAAELILSLLKLFRELHERGTEIVVEVHINGRKTEIEVQGIDKRLLQIILEVIIEEIAREGPDKVEVNVHSGGQTWTFRYGGS
B2: 202B57 (designed binder)
chain: GSSVEFHIVNISEKAAQIIERAVRAISKELGTEVRFEKRDGELTIEVKNLHERRLQEILLLIEAVKLLLLALKAVKEDPSTDALRAVLEAVRFASEVAKRVENPEAVAVLAELVIELALEAVKEDPSTDALRAVLEAVRLASEVAKRVTDADKALKIAKLVIELALEAVKEDPSEEAKRAVEEAKRLAEEVSKRVTDPELSEKIRQLVKELEEEAQKEDPSGSHHWGSGLNDIFEAQKIEWHEGSHHHHHH
B3: LHD274 chainB (designed binder)
chain: NTHFIVVHGSEEARQRAEEYVRRISKKEGTEVRFEKKDGLLSIEVKNLSEERQREIQEYLQRVQK
B4: 202A21 (designed binder)
single chain, LHD202 chain A fused to DHR21: HHHHHHGSGLNDIFEAQKIEWHEAENLYFQSGSSEKEKVEELAQRIREQLPDTELAREAQELADEARKSDDSEALKVVYLALRIVQQLPDTELAREALELAKEAVKSTDPAQLIVVQLALKIVQKLPDTEEARRALELAKEAVKSTNKAELVVIAIELLVLLMGVTMEVHKSGNKVKVVIKGLHESQQEQLRKLVHEALRAAGVVAVTQKHGDTVTIYVTEGS

These are yes or no findings as the source states them, for the method shown. Some binding calls cover weakened binding; strength is not graded here.

One experiment addresses 206A54. The experiment is described as follows: SEC titration of the protomer alone at several injection concentrations (Superdex 200, normalised A230); self-association.
The target of the experiment “202B57” is B2. The experiment is described as above.
In another experiment the target is LHD274 chainB. Kind of experiment: SEC titration (FIG. 10, protomers fused to DHR53); self-association.
The target of another experiment is 202A21. The experiment is described as follows: SEC titration of the protomer alone at several injection concentrations (Superdex 200, normalised A230); self-association.

B1: the binding result with 206A54 is reported as “no binding (tested: 32.0 uM)”.

As to B2, in the experiment with 202B57, the binding result is recorded as “no binding (tested: 8.0 uM)”.

As to B3, the binding entry with LHD274 chainB was “binds”.

B4: the binding result with 202A21 was “no binding (tested: 32.0 uM)”.
